Values of other authors as cited in patent US8114422B2, “Methods and compositions for reducing skin damage” (The General Hospital Corporation, priority 2005, dated 2012).
At least one structure is not confirmed: it was looked up by name or label, or the drawing left a doubt.

System: JNK-1, -2, -3

Structure (SMILES): Oc1c2ccccc2c2c3c(cccc13)N=N2 [SP600125]
- IC50: 110 nM
- selectivity versus a range of kinases (reversible ATP competitive inhibitor): with >20-fold selectivity
